Part of at least one peptide drawing is inferred or uncertain, most often the ends. No end group written: not given here.
System: PRAME-004 specific peptide:MHC binding polypeptide
Assay: Bio-layer interferometry of peptide:MHC complexes with the PRAME-004 binder
Settings: ratio of KD in comparison to PRAME-004; HIS1K biosensors

## ALANHLIKV [EHD-001, ALANHLIKV]
  Binding affinity fold reduction: 159 fold
